{"sequences": {"note": "Sequences of proteins named here, by UniProt entry; tags and fusion partners are left off. A change or cut given only in a name is not applied to a line headed by its entry.", "UniProt P04150": "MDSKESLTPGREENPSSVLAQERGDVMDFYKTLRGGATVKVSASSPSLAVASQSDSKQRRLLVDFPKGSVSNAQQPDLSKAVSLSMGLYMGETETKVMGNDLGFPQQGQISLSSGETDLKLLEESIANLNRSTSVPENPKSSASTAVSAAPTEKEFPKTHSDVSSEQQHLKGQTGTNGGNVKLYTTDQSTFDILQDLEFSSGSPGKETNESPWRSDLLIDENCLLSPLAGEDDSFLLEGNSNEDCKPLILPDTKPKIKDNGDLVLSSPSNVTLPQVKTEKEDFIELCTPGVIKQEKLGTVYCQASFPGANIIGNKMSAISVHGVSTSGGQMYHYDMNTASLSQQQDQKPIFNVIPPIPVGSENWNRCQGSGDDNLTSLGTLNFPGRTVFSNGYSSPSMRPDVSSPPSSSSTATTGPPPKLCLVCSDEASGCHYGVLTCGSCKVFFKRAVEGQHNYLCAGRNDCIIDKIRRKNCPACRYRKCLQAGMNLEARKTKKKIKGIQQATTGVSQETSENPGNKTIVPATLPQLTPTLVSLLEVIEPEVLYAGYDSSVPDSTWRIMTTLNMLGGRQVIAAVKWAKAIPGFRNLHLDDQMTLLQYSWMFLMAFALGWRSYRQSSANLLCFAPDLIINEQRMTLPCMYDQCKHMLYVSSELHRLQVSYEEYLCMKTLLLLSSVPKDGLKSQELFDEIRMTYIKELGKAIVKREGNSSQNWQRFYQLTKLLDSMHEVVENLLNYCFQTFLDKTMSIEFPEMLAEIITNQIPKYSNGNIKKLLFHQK", "UniProt Q96RI1": "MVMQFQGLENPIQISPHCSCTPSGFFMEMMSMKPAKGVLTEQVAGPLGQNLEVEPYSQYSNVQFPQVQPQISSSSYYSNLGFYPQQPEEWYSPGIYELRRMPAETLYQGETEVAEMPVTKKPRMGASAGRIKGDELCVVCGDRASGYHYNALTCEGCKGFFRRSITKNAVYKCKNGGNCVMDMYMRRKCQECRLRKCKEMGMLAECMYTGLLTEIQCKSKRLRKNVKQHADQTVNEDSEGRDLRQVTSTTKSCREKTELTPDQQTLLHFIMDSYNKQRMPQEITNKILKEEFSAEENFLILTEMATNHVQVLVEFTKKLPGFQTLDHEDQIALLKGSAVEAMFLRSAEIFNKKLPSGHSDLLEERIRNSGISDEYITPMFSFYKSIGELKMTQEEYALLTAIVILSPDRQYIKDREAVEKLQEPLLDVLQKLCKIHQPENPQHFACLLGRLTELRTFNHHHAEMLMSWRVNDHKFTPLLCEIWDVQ", "UniProt Q13133, whole entry, looked up": "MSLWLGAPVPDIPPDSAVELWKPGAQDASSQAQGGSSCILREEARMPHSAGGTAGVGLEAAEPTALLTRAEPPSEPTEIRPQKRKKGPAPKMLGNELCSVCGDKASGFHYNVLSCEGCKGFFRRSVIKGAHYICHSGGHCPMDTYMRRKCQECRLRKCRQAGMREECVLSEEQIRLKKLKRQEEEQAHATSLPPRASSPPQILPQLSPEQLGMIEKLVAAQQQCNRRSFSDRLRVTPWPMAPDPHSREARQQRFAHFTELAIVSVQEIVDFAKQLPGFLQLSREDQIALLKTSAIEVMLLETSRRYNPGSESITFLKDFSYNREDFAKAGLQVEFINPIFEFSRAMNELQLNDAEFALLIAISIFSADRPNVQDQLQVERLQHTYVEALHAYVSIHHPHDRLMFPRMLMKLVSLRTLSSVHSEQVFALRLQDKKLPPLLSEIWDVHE", "UniProt P55055, whole entry, looked up": "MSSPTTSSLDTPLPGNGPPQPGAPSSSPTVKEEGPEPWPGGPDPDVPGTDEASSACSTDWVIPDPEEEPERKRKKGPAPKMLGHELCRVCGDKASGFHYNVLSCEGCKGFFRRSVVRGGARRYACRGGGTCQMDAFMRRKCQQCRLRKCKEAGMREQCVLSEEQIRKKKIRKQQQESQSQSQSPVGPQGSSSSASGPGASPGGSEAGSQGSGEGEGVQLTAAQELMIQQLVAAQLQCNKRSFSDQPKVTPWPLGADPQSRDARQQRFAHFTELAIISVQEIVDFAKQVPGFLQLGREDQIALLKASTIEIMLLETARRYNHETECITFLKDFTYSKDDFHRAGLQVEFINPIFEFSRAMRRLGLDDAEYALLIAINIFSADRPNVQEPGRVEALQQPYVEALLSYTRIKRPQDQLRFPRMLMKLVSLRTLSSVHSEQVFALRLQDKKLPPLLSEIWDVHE"}, "source": "PubChem BioAssay (EPA / NIEHS)", "note": "“And” between values parts separate entries of the source, which are not always exact repeats. Identical values can stand only once. Inconclusive results, whose numbers are uncertain, are shown with a selection of clear calls. Potencies beside an inconclusive call are fits to weak or partial responses and may not hold up. The source made the active and inactive calls. Rule for the calls: active = hit-call score of the fitted dose curve at least 0.9, where 1 is the maximum; inconclusive = response in the unintended direction; inactive = score below 0.9."}
{"biological_target": "Glucocorticoid receptor (Homo sapiens) (UniProt P04150)", "assay": "ATG_GR_TRANS: Attagene TRANS-FACTORIAL HepG2 Assay for human Glucocorticoid Receptor (GR) (AID 2282978);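 note: activators score as hits since higher reporter transcript over DMSO is fitted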", "conditions": "HepG2 Attagene TRANS GR reporter, mRNA transcription", "how_it_was_run": "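In this trans-factorial format, exogenous NR-GAL4 chimeric proteins in transfected HepG2 cells regulate GAL4-UAS reporter transcription. After 24 h treatment, reporter mRNA induction relative to DMSO is read by RT-PCR and capillary electrophoresis.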"}
{"smiles": "CCCC[N+](C)(CCCC)CCCC", "outcome": "inactive"}
{"smiles": "CCCCCCCCCCCCN1CCOCC1", "outcome": "inactive"}
{"smiles": "CC(C)C=O", "AC50": "inconclusive: 100 µM"}
{"biological_target": "Bile acid receptor (Homo sapiens) (UniProt Q96RI1)", "assay": "ATG_FXR_TRANS: Attagene TRANS-FACTORIAL HepG2 Assay for Farnesoid X Receptor (FXR) (AID 2282979);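 note: hits raise reporter mRNA above DMSO so AC50 marks FXR activation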", "conditions": "HepG2 Attagene TRANS FXR-GAL4 reporter transcription", "how_it_was_run": "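HepG2 cells were transiently transfected with GAL4-UAS reporters driven by chimeric NR-Gal4 proteins and dosed for 24 h. Reporter mRNA was quantified by RT-PCR, fluorescent labelling, HpaI digestion and capillary electrophoresis, with gain of signal scored versus DMSO.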"}
{"smiles": "O=C(O)C(F)(OC(F)(F)C(F)(OC(F)(F)C(F)(F)C(F)(F)F)C(F)(F)F)C(F)(F)F", "note": "(stereo unspecified)", "AC50": "inconclusive: 150 µM"}
{"smiles": "FC(F)(F)C(F)(F)C(F)(F)C(F)(F)C(F)(F)C(F)(F)I", "outcome": "inactive"}
{"biological_target": "Oxysterols receptor LXR-alpha (Homo sapiens) (UniProt Q13133)", "assay": "ATG_LXRa_TRANS: Attagene TRANS-FACTORIAL HepG2 Assay for human Liver X Receptor alpha (LXRa) (AID 2282980)", "conditions": "HepG2 Attagene TRANS reporter, LXRa transactivation", "how_it_was_run": "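HepG2 cells transiently transfected with GAL4-UAS reporter units for chimeric NR-Gal4 proteins, exposed to chemicals for 24 h. Reporter mRNA quantified by RT-PCR and capillary electrophoresis; gain of signal fitted relative to DMSO.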"}
{"smiles": "CC(C)COC(=O)CC(C(=O)OCC(C)C)S(=O)(=O)O", "note": "(stereo unspecified)", "outcome": "inactive"}
{"smiles": "O=C(O)C(F)(OC(F)(F)C(F)(OC(F)(F)C(F)(F)C(F)(F)F)C(F)(F)F)C(F)(F)F", "note": "(stereo unspecified)", "AC50": "inconclusive: 0.0367 µM", "outcome": "inactive"}
{"smiles": "O=C(/C=C/C=C/c1ccc2c(c1)OCO2)N1CCCCC1", "AC50": "inconclusive: 100 µM"}
{"smiles": "C[N+](C)(C)CCO", "AC50": "inconclusive: 0.833 µM"}
{"smiles": "FC(F)(F)C(F)(F)C(F)(F)C(F)(F)C(F)(F)C(F)(F)I", "outcome": "inactive"}
{"smiles": "OCCC(F)(F)C(F)(F)C(F)(F)C(F)(F)C(F)(F)C(F)(F)C(F)(F)C(F)(F)F", "AC50": "inconclusive: 0.401 µM"}
{"smiles": "CC(C)C=O", "outcome": "inactive"}
{"smiles": "CCCCCCCCCCCSCC(=O)O", "AC50": "inconclusive: 100 µM"}
{"smiles": "CC(CC(C)C)=NO", "AC50": "inconclusive: 0.17 µM"}
{"smiles": "CCCCCCCC(=O)N(C)C", "outcome": "inactive"}
{"smiles": "N#CC1(N)CCCCC1", "outcome": "inactive"}
{"biological_target": "Oxysterols receptor LXR-beta (Homo sapiens) (UniProt P55055)", "assay": "ATG_LXRb_TRANS: Attagene TRANS-FACTORIAL HepG2 Assay for human Liver X Receptor beta (LXRb) (AID 2282981)", "conditions": "HepG2 Attagene TRANS GAL4-LXRb reporter, mRNA", "how_it_was_run": "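HepG2 cells transiently transfected with multiple reporter transcription units carrying chimeric NR-Gal4 proteins acting on GAL4-UAS reporters; compound exposure 24 h. Reporter mRNA quantified by RT-PCR, 6-FAM labelling, HpaI digestion and capillary electrophoresis; gain of signal versus DMSO.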"}
{"smiles": "CC(C)COC(=O)CC(C(=O)OCC(C)C)S(=O)(=O)O", "note": "(stereo unspecified)", "outcome": "inactive"}
{"smiles": "O=C(O)C(F)(OC(F)(F)C(F)(OC(F)(F)C(F)(F)C(F)(F)F)C(F)(F)F)C(F)(F)F", "note": "(stereo unspecified)", "AC50": "inconclusive: 50 µM"}
{"smiles": "O=C(/C=C/C=C/c1ccc2c(c1)OCO2)N1CCCCC1", "AC50": "inconclusive: 100 µM"}
{"smiles": "FC(F)(F)C(F)(F)C(F)(F)C(F)(F)C(F)(F)C(F)(F)I", "AC50": "inconclusive: 150 µM"}
{"smiles": "O=C(Cl)c1ccc(Cl)cc1Cl", "AC50": "inconclusive: 100 µM"}
{"smiles": "CCCCCCCCCCCCN1CCOCC1", "outcome": "inactive"}
{"smiles": "O=C(O)[C@H](O)[C@@H](O)C(=O)O", "outcome": "inactive"}
{"smiles": "CC(C)C(=O)OCc1ccccc1", "AC50": "inconclusive: 100 µM"}
{"smiles": "CC(C)C=O", "AC50": "inconclusive: 24 µM"}
{"smiles": "CCCCCCCCCCCSCC(=O)O", "AC50": "inconclusive: 100 µM"}
{"smiles": "CC(CC(C)C)=NO", "AC50": "inconclusive: 36.4 µM"}
{"smiles": "CCCCCCCC(=O)N(C)C", "outcome": "inactive"}
